Results are given in words; binding and its absence hold for the method and conditions named. Binding seen in cells or lysates may run through a third protein. Some binding calls cover weakened binding; strength is not graded here.
Legend:
[1] = molecular target: T1, Tankyrase-1 (mouse (endogenous in C2C12)) (UniProt Q6PFX9); experiment: co-IP; anti-TNKS1 or IgG antibodies on lysates of differentiating C2C12 cells expressing GFP, GFP-HuR^WT or GFP-HuR^G224D; protein A/G magnetic beads; washes with 25 mM Tris-HCl pH 8.0, 650 mM NaCl, 0.05% Tween-20; western blot
T1 sequence: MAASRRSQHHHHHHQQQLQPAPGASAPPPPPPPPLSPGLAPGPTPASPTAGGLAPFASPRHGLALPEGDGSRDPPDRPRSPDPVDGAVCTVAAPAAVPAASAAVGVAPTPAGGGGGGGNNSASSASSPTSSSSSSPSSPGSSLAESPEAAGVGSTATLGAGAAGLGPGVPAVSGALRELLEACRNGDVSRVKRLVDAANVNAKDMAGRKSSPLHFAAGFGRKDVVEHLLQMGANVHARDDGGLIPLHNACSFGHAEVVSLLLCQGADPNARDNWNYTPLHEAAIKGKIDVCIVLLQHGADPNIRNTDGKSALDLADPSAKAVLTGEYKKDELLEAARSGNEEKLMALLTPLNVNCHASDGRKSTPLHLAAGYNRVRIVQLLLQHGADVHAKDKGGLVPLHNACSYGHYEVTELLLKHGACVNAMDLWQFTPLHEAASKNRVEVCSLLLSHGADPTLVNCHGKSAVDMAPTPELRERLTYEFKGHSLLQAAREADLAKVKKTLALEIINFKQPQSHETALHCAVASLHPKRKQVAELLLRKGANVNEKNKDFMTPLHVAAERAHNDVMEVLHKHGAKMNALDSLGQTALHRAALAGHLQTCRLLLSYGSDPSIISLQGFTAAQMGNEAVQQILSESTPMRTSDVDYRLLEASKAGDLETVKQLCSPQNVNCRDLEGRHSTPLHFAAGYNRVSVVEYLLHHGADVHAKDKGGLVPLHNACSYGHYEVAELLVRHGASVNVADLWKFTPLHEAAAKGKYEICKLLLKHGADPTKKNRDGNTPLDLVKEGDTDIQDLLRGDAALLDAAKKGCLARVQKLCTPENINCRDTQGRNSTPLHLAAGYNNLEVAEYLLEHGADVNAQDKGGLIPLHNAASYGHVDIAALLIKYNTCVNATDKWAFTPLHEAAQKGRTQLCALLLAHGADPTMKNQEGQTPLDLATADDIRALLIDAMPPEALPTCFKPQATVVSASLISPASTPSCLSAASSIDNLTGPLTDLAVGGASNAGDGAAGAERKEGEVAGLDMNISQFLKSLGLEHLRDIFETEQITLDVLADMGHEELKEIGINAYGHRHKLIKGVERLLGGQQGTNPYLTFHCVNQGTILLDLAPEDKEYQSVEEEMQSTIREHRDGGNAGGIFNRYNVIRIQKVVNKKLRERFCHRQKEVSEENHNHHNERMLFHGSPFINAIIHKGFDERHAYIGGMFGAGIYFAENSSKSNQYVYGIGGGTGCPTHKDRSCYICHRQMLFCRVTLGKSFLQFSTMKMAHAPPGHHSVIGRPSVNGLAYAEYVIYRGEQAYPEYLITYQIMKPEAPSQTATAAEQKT

Chains of the proteins cited; added tags and fusions are not shown. Lines headed by an entry give the natural chain unless they say otherwise; changes in a name come on top. A line that says so, or that is headed by a name, gives the form on record, which may keep a tag or linker.
UniProt Q15717: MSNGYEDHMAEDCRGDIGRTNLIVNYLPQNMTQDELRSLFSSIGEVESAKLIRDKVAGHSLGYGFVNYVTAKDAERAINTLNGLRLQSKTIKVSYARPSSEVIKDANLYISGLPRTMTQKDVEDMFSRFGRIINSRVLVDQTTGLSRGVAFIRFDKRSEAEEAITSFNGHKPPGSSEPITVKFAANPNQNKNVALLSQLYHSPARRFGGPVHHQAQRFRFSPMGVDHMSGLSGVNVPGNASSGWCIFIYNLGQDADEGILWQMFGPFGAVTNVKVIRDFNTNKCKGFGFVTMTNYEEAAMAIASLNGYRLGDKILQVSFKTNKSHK
GFP-HuR containing a glycine (G) to aspartate (D) mutation at the 224 position (Q15717, form named): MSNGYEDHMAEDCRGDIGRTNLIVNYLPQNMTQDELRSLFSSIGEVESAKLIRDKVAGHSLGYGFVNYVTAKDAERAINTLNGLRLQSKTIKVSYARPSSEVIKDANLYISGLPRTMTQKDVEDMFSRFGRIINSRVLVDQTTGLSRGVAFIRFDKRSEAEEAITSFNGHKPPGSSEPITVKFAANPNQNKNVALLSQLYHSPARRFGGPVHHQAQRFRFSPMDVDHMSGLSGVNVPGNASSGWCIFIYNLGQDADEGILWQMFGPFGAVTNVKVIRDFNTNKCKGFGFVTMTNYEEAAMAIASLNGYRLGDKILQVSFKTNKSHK
UniProt P70372: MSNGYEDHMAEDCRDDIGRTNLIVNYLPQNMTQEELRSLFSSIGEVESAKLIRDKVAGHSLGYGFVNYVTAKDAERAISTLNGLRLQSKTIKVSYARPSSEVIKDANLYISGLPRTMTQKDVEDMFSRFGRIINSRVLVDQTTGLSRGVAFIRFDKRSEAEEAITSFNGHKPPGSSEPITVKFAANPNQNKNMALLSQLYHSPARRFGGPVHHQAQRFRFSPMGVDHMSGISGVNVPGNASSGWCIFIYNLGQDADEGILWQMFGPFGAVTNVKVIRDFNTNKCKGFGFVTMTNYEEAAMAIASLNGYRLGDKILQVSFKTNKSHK

[2] = molecular target: T2, transportin-2 (mouse (endogenous in C2C12)) (UniProt Q99LG2); experiment: co-IP; anti-TRN2 or IgG antibodies on extracts of differentiating (D2) C2C12 cells transfected with siCTRL or siTNKS1; protein A/G magnetic beads; washes with 25 mM Tris-HCl pH 8.0, 650 mM NaCl, 0.05% Tween-20; western blot for HuR
T2 sequence: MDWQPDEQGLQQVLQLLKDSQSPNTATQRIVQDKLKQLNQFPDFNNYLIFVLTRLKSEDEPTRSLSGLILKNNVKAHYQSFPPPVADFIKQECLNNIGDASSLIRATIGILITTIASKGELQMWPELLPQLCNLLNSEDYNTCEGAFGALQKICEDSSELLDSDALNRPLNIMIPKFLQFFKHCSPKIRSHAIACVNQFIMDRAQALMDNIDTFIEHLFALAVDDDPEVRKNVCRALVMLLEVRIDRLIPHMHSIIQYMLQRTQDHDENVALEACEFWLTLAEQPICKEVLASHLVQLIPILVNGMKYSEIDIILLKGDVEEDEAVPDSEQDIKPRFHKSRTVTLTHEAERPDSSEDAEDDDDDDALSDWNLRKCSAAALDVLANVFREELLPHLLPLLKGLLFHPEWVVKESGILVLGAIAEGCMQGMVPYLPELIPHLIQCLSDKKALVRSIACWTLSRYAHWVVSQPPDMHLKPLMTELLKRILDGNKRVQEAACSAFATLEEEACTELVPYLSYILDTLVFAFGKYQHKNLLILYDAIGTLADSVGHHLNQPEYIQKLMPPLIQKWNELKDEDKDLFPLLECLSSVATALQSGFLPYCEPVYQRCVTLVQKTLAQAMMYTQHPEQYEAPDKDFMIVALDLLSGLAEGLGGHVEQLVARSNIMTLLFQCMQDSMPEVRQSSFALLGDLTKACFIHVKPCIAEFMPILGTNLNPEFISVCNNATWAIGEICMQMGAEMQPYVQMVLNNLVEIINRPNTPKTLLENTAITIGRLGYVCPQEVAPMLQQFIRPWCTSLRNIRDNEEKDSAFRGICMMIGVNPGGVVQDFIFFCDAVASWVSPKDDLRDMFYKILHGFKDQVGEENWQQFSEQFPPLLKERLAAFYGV

Row | binding [1] | binding [2] | Substance
1 | no binding |  | GFP-HuR containing a glycine (G) to aspartate (D) mutation at the 224 position (from UniProt Q15717 1-326)
2 | binds |  | GFP-HuR wild-type (from UniProt Q15717 1-326)
3 |  | binds | Human Antigen R (HuR), endogenous (from UniProt P70372 1-326)

Source: article PMC11040007
